No constants are given. Whether binding was seen depends on the method and setting. Some entries that bind do so weakly or less than the wild type. Each block holds one binder with its values, some of them ahead of it.
How the values were obtained:
[1] = target: NME7AB-like protein (~33 kDa NME7 species) (human) (UniProt Q9Y5B8); experiment: immunofluorescence on T47D, ZR-75-1, H1975, H292, HPAFII and DU145 cells (FIG. 47)
[2] = target: NME7AB-like protein (~33 kDa NME7 species) (human) (UniProt Q9Y5B8); experiment: immunofluorescence on cancer cell lines, in parallel to FIG. 47

Amino acid sequences for entries named in this document (tags omitted). Residues count along the entry.
UniProt Q9Y5B8, residues 92-376: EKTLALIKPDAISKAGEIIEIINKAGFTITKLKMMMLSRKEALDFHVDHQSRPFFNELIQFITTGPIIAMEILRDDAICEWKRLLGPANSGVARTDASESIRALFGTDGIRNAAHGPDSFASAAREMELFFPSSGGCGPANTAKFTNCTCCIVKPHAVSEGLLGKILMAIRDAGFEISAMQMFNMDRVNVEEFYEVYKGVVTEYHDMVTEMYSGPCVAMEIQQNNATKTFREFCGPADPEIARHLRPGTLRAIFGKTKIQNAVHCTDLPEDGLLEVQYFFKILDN

binding [1]: binds
B1: anti-NME7AB monoclonal antibody 5F3A5D4 (antibody, V domains shown)
VH: VQLQQSGPDLVKPGTSVKISCKTSGNTFTEYTMHWVKQSHGKSLEWIGGFNPNNGVTNYNQKFKGKATLTVDKSSSTAYMELRSLTSEDSAVYYCARRYYHSTYVFYFDSWGQGTTLTVSS
VL: DIQMTQTTSSLSASLGDRVTISCSASQGISNYLNWFQQKPDGTIKLLIYYTSSLHSGVPSRFSGSGSGTDYSLTISNVEPEDIATYYCQQYSKLPYTFGGGTKLEIKR
notes: Mouse monoclonal

binding [2]: binds
B2: anti-NME7AB monoclonal antibody 8F9A5A1 (antibody, V domains shown)
VH: IQLVQSGPELKKPGETVKISCKASGYTFTNYGMNWVKQAPGKGLKWMGWINTYTGEPTYVDDFKGRFAFSLETSATTAYLQINNLKNEDTSTYFCARLRGIRPGPLAYWGQGTLVTVSA
VL: EILLTQSPAIIAASPGEKVTITCSASSSVSYMNWYQQKPGSSPKIWIYGISNLASGVPARFSGSGSGTSFSFTINSMEAEDVATYYCQQRSSYPPTFGGGTKLEIKR
notes: Mouse monoclonal
